Among the data in PubChem BioAssay AID2685 (National Center for Advancing Translational Sciences (NCATS), 2010) are cell number change and AC50 values, retold here.

Broadly, the AC50 is the midpoint of the concentration-response curve, whichever way the signal moves. Low readings indicate activity at low concentration, high ones activity only at high concentration.

Molecules are shown by their SMILES. The list shows a part of the results. These are further read-outs of the screen, such as a control signal, another cell line or another target. No call is given for them. The list favours compounds with an active or inconclusive main result. Potencies come from curve fits of mixed quality, noted in brackets.

This assay in a line: qHTS Assay for Lipid Storage Modulators in Drosophila S3 Cells.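 As to cell number change: cells counted by Cell Tracker Red CMTPX staining in the red channel.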 The conditions noted are these: BODIPY lipid droplet fluorescence, 18-24 h; for cell number change: measured here: cell count max response, cells fed with added oleic acid. The method in brief:
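Drosophila S3 cells got compounds at several concentrations plus oleic acid (400 uM solution). Laser-scanning cytometry with 488 nm excitation read lipid droplets at 500-530 nm and cells at 575-640 nm. Percent activity was relative to 20 uM Triacsin C.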
(In general: Quantitative high-throughput screening tests each substance at several concentrations.)

Where [1] appears, read: measured here: cell number channel AC50, cells fed with added oleic acid.
The mark [2] stands for this setting: measured here: lipid fluorescence (Fed channel) AC50, cells fed with added oleic acid.

In the case of `O=[N+]([O-])c1ccccc1S(=O)(=O)c1ccccc1[N+](=O)[O-]`, the cell number change is -35.2%. For the same compound, the half-maximal activity concentration (AC50) under setting [1] was 18.4 µM [falling, single point]. Under setting [2], the AC50 was 20.6 µM [falling, single point].
Consider `CN1N=C(C(F)(F)F)CC1=O`, for which the cell number change was 30.9%. In addition, under setting [1], the concentration at half-maximal activity (AC50) is 29.1 µM [rising, single point]. In addition, under setting [2], the half-maximal activity concentration (AC50) is 29.1 µM [rising, single point].
With `COc1ccccc1NC(=O)C1=C(C)Nc2nc3ccccc3n2C1c1cccs1` (configuration not stated), the cell number change was 30.7%. In addition, under setting [1], the AC50 was 2.31 µM [rising, full curve, poor fit]. The concentration at half-maximal activity (AC50) under setting [2] is 6.51 µM [rising, partial curve].
As for `COc1cccc(N=Nc2ccc3ccccc3c2O)c1`, the cell number change is -7.51%. In addition, the concentration at half-maximal activity (AC50) under setting [1] was 2.91 µM [falling, partial curve]. The AC50 under setting [2] was 0.92 µM [falling, full curve].
For `O=C(NCC1CCCO1)c1ccc(F)c2ccccc12` (configuration not stated), the cell number change came out at 13.1%.
`CC(C)C(NC(=O)c1ccccc1)C(=O)N1CCCCCC1` (configuration not stated): the half-maximal activity concentration (AC50) under setting [2] is 29.1 µM [falling, single point].
For the compound `Cc1ccc2oc(/N=C(\N)NC(=O)C3CC3)nc2c1`, the cell number change is -18.4%. Moreover, the AC50 under setting [2] was 0.58 µM [falling, partial curve, poor fit].
For `COc1ccccc1/C=C1\SC(=S)N(CCC(=O)N2CCCCC2CCO)C1=O` (configuration not stated), the cell number change was -8.56%. For the same compound, the AC50 under setting [2] is 6.51 µM [falling, partial curve].
Take `CC(=O)c1ccc(OCc2ccc(Oc3c(Cl)cccc3[N+](=O)[O-])cc2)cc1`: the cell number change turned out to be 12.4%. Under setting [2], the concentration at half-maximal activity (AC50) is 1.46 µM [rising, partial curve].
Take `Cn1c(=O)c2c(nc(CN3CCN(CCO)CC3)n2Cc2cccc3ccccc23)n(C)c1=O`: the cell number change is -2.51%. Also, the AC50 under setting [2] was 29.1 µM [rising, single point].
In the case of `CCc1ccc(CCC(=O)Nc2sc3c(c2C#N)CCCC3)o1`, the half-maximal activity concentration (AC50) under setting [2] is 5.8 µM [rising, full curve].
As to `O=C(O)CC(NNC(=O)c1ccccc1)C(=O)Nc1cccc([N+](=O)[O-])c1` (configuration not stated), the cell number change was -7.74%.
As to `COc1ccc2c(C(=O)CN3CC(C)OC(C)C3)c[nH]c2c1` (configuration not stated), the cell number change came out at 12.2%. The AC50 under setting [2] is 0.103 µM [falling, full curve, poor fit].
Turning to `C=CCn1c(C)c(/C=C/c2cc[n+](C)cc2)c2ccccc21`, the cell number change was -97.7%. Moreover, the half-maximal activity concentration (AC50) under setting [1] was 29.1 µM [falling, single point].
For `CC(=O)Nc1ccc(NC(=O)C(C)OC(=O)C2CCC2)cc1` (configuration not stated), the cell number change is -0.748%.
Take `NCCc1nnc(SCc2ccc(F)cc2)o1`: the cell number change was 49.8%. The AC50 under setting [1] was 9.2 µM [rising, partial curve].
Turning to `COc1ccc(OCC(O)CN2CCN(Cc3ccc4c(c3)OCO4)CC2)cc1` (configuration not stated), the half-maximal activity concentration (AC50) under setting [2] was 0.651 µM [rising, full curve, poor fit].
Turning to `COc1ccc(OC)c(NC(=O)C(Sc2ccccc2)c2ccccc2)c1` (configuration not stated), the cell number change is -22.7%. Further, the half-maximal activity concentration (AC50) under setting [2] is 13 µM [falling, single point].
As for `C1=CC(c2cc3ccccc3o2)OC(CCc2ccccc2)C1` (configuration not stated), the cell number change worked out at 23.6%. Also, under setting [2], the AC50 was 6.51 µM [rising, single point].
With `O=C(Nc1ncnc2c1ncn2C1OC(COC(=O)c2ccccc2)C(F)C1O)c1ccccc1` (configuration not stated), under setting [1], the AC50 was 6.51 µM [rising, single point].
On to `COc1ccc(CCNC(=O)C2CCCN(S(=O)(=O)c3ccccc3)C2)cc1` (configuration not stated), for which the cell number change stood at 28.2%. For the same compound, the concentration at half-maximal activity (AC50) under setting [2] was 6.51 µM [rising, single point].
On to `COc1ccccc1CNC(=O)CC12CC3CC(CC(Br)(C3)C1)C2`, for which the cell number change came to 4.62%.
Turning to `Cc1oc2nc(SCC(=O)NCCCO)nc(N)c2c1C`, the cell number change was 25.4%. Also, the AC50 under setting [2] is 3.26 µM [rising, full curve, poor fit].
On to `CCn1cc(C(=O)OCC(=O)c2ccc(Cl)cc2)c(=O)c2ccc(C)nc21`, for which the cell number change is -18.2%. Besides, the AC50 under setting [2] was 29.1 µM [falling, single point].
Regarding `CC(C)Nc1nc(NC2CCCC2)nc(N2CCOCC2)n1`, the cell number change is -33.1%. Further, under setting [1], the concentration at half-maximal activity (AC50) was 9.2 µM [falling, full curve, poor fit]. Further, under setting [2], the AC50 was 2.59 µM [falling, full curve].
`CCOc1ccc(CCNC(=O)COC(=O)CSc2ccccc2C)cc1OCC`: the cell number change was found to be 31.2%. Further, the AC50 under setting [1] is 4.11 µM [rising, full curve, poor fit]. The AC50 under setting [2] is 4.11 µM [rising, single point].
Regarding `O=C(/C=C/c1ccccc1Cl)c1ccc(O)cc1`, the cell number change is -15.6%. Besides, under setting [2], the concentration at half-maximal activity (AC50) was 23.1 µM [falling, single point].
Consider `CCc1ccccc1N1C(=O)C2CC(C)=C(C)CC2C1=O` (configuration not stated), for which the cell number change was -2.2%. In addition, the AC50 under setting [2] is 20.6 µM [falling, partial curve].
Take `CCc1cccc(NC(=O)COC(=O)c2cc(=O)c3ccccc3o2)c1`: the cell number change is 4%.
Consider `CCCc1nnc(SCC(=O)Nc2ccc(Cl)cc2Cl)o1`, for which, under setting [2], the half-maximal activity concentration (AC50) is 0.58 µM [rising, single point].
With `C/C(=N\O)c1ccco1`, the cell number change was -2.58%. Under setting [1], the AC50 is 0.092 µM [falling, full curve, poor fit].
For `CC(=O)Nc1ccc(NC(=O)CSc2n[nH]c(-c3cccs3)n2)cc1`, the cell number change is -6.5%.
Consider `CCOC(=O)c1[nH]c2ccc(F)cc2c1NC(=O)CN1CCN(C/C=C/c2ccccc2)CC1`, for which the cell number change is -15%. For the same compound, the concentration at half-maximal activity (AC50) under setting [2] was 32.6 µM [falling, single point].
As for `c1ccc2c(NC3CCCC3)nnc(NC3CCCC3)c2c1`, the cell number change was 91.1%. Also, the AC50 under setting [1] is 10.3 µM [rising, partial curve]. Moreover, the concentration at half-maximal activity (AC50) under setting [2] is 3.26 µM [rising, single point].
Regarding `CCc1ccc(N2CCN(C(=O)N3CCOCC3)CC2)cc1`, the cell number change was -35.1%. For the same compound, the AC50 under setting [1] is 0.00517 µM [falling, full curve, poor fit]. In addition, the AC50 under setting [2] was 32.6 µM [falling, partial curve, poor fit].
For `CCOc1cccc2cc(C(=O)N3CCc4ccccc43)c(=O)oc12`, the cell number change was -7.69%.
Turning to `Cc1sc2nc(CSCC(=O)Nc3cc(F)ccc3F)[nH]c(=O)c2c1C`, the cell number change was -2.72%. In addition, the AC50 under setting [2] was 14.6 µM [rising, partial curve, poor fit].
As to `Cc1cc(C)c(C(=O)CSc2nnc(C)c(=O)[nH]2)cc1C`, the cell number change came out at 160%. In addition, the AC50 under setting [1] is 29.1 µM [rising, single point].
Turning to `Cc1ccc(S(=O)(=O)NC(=O)c2ccccc2C)cc1`, the cell number change was determined as 40.4%. In addition, the half-maximal activity concentration (AC50) under setting [1] was 29.1 µM [rising, single point]. The AC50 under setting [2] was 0.651 µM [rising, full curve, poor fit].
In the case of `O=C(N/N=C/c1cn(Cc2ccccc2)c2ccccc12)c1cccnc1`, the cell number change is -40.1%. Moreover, the AC50 under setting [1] was 10.3 µM [falling, partial curve, poor fit]. Moreover, the AC50 under setting [2] was 1.3 µM [rising, partial curve].
On to `CCC(=O)N1CCN(c2ccc(NC(=O)c3ccc([N+](=O)[O-])o3)cc2Cl)CC1`, for which the cell number change was -56.8%.
In the case of `CC(=O)N1N=C(c2ccc(C)cc2)CC1c1ccco1` (configuration not stated), the cell number change amounted to 8.12%. For the same compound, the AC50 under setting [2] is 0.251 µM [falling, partial curve, poor fit].
For `Cc1cc(C)cc(OCC(=O)NNC(=O)c2cc3ccccc3oc2=O)c1`, the cell number change came to 9.43%. In addition, the half-maximal activity concentration (AC50) under setting [2] is 29.1 µM [rising, single point].
Take `Cc1ccc(Nc2nc3c([nH]2)c(=O)n(C)c(=O)n3C)cc1`: the cell number change is 29.3%. In addition, under setting [1], the half-maximal activity concentration (AC50) was 3.66 µM [rising, full curve, poor fit]. Moreover, the half-maximal activity concentration (AC50) under setting [2] is 20.6 µM [rising, partial curve].
For the compound `CC(=O)Nc1ccc(S(=O)(=O)N2CCC3(CC2)CC(=O)c2ccccc2O3)cc1`, the cell number change was found to be 29.1%.
With `CCN(CC)C(=O)CSc1nc2ccc(NC(=O)CSc3nnc(N)s3)cc2s1`, the cell number change was -20%. The AC50 under setting [2] was 9.2 µM [falling, partial curve, poor fit].
`O=C(COC(=O)C12CC3CC(CC(C3)C1)C2)NC12CC3CC(CC(C3)C1)C2`: the cell number change was -17.5%. Further, under setting [2], the AC50 is 16.4 µM [falling, single point].
Consider `CCOC(=O)c1sc(=NC(=O)COc2ccccc2)n(C)c1C`, for which the cell number change is -13%. Moreover, the AC50 under setting [2] is 23.1 µM [rising, single point].
As for `O=C(c1ccc(C(F)(F)F)cc1)N1CCC(=O)N(C(COCc2ccccc2)Cc2ccccc2)CC1` (configuration not stated), the cell number change is -31.2%. In addition, the AC50 under setting [1] is 29.1 µM [falling, single point]. For the same compound, the concentration at half-maximal activity (AC50) under setting [2] is 32.6 µM [falling, single point].
As for `Cc1cc(C(=O)COC(=O)c2ccc[nH]c2=O)c(C)n1CCc1ccc(F)cc1`, the cell number change is -21.5%. The AC50 under setting [2] was 6.51 µM [rising, partial curve].
As to `COc1ccc(S(=O)(=O)N2CCC(C(=O)NC3CCCCC3C)CC2)cc1` (configuration not stated), the cell number change was 13.3%.
As for `Nc1ccc(CCC(=O)N2CCCC2)cc1`, the cell number change was 20.4%.
Consider `COc1cccc(NC(=O)NC2CCCCC2C)c1` (configuration not stated), for which the cell number change worked out at 11.2%.
As for `O=C(CSc1nnnn1C1CCCCC1)NCc1ccc2c(c1)OCO2`, the cell number change is -10.2%.
Regarding `COC(=O)c1cc(-c2ccc(Cl)cc2)n(-c2ccc(S(N)(=O)=O)cc2)n1`, the cell number change amounted to 45.5%. Moreover, the AC50 under setting [1] is 6.51 µM [rising, partial curve, poor fit]. Besides, under setting [2], the AC50 was 25.9 µM [rising, partial curve, poor fit].
As for `O=C(O)c1ccc(C2CCCCC2)cn1`, the half-maximal activity concentration (AC50) by setting is: under setting [1], 0.411 µM [falling, partial curve, poor fit]; under setting [2], 0.13 µM [falling, full curve, poor fit].
On to `CC(C)Cn1c(SCC(=O)NCc2ccc(Cl)cc2)nnc1-c1cccc(S(=O)(=O)N2CCOCC2)c1`, for which the cell number change was -10.8%. The AC50 under setting [2] is 29.1 µM [falling, single point].
In the case of `O=C(NC1CC2CCC1C2)C1CCN(S(=O)(=O)c2ccc(-c3nn[nH]n3)cc2)CC1` (configuration not stated), the cell number change came out at 6.31%. For the same compound, the AC50 under setting [1] was 5.8 µM [rising, single point].
With `O=C(COC(=O)c1ccc2c(c1)C(=O)N(c1cccc3ncccc13)C2=O)c1ccc(Cl)cc1`, the cell number change is -2.08%. The concentration at half-maximal activity (AC50) under setting [1] was 0.146 µM [falling, full curve].
As to `COc1ccc(S(=O)(=O)Nc2ccccn2)cc1`, the cell number change amounted to 26%.
In the case of `CSc1ncccc1C(=O)OCc1ccc(COC(=O)c2cccnc2SC)cc1`, the cell number change is -48.9%. In addition, under setting [1], the AC50 is 29.1 µM [falling, single point]. Moreover, under setting [2], the concentration at half-maximal activity (AC50) is 6.51 µM [falling, partial curve, poor fit].
